Test results as given in article doi:10.1101/2022.01.12.476115.
Results are given in words; binding and its absence hold for the method and conditions named. Binding seen in cells or lysates may run through a third protein. Some results given as binding are weak or reduced against the parent protein; the word gives no strength.

Chains of the proteins cited; added tags and fusions are not shown. Lines headed by an entry give the natural chain unless they say otherwise; changes in a name come on top.
UniProt P46527: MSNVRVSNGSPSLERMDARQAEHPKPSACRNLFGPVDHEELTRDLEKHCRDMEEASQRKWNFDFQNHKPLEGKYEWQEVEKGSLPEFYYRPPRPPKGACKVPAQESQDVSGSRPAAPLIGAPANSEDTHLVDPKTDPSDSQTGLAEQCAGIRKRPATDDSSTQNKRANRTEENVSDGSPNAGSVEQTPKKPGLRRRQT
UniProt P06493: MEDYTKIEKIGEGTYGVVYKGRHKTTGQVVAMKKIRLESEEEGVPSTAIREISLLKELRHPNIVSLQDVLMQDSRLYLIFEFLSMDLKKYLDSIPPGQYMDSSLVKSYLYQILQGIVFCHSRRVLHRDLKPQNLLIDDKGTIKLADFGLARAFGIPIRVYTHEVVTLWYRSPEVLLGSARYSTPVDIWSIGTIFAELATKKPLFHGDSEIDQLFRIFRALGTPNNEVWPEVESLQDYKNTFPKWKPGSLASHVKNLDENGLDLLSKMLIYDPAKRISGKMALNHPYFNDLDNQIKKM

Target: Flag-p27 FL (full-length p27 CDK inhibitor) (human) (UniProt P46527)
Assay: co-IP

binding: binds
Substance: Cdk1-cyclin B complex (M-phase cyclin) (from UniProt P06493 1-297; P14635 1-433)
